Some of the results follow.
The sequences below were run against T1, OsSMF1 (Oryza sativa, UniProt Q6ZLB0 1-436) (assay: protein-binding microarray (RPBM); PBS, 2% BSA, 51.3 ng/ul salmon testes DNA, 50 uM zinc acetate, 200 nM TF, 25 C, 1 h; high values mean tight binding). Settings: protein: recombinant; tags: N-terminal polyhistidine and DsRed monomer fusion (pET32a); chain copies: 2; label: CyDye5-dUTP incorporated in the synthesized complementary strand; 3' TTTTT single-stranded linker to array surface; dsDNA, one strand shown.
T1 sequence: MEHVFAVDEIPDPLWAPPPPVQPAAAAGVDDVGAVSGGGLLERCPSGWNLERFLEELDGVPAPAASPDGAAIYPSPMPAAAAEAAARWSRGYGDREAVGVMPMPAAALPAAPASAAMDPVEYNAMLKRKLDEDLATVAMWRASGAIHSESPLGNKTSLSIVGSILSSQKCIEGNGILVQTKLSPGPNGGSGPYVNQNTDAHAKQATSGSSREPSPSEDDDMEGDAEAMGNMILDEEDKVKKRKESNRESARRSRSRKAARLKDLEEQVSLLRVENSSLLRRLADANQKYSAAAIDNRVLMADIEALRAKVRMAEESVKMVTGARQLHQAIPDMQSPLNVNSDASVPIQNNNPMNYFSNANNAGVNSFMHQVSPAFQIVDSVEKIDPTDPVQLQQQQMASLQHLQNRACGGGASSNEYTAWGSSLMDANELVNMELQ
Outline: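 The binding signal is fluorescence intensity per array feature (arbitrary units). Readings came from an Axon 4000B scanner after a washed, 2% BSA-blocked, double-stranded custom Agilent array had been incubated for 1 h at 25 °C with 200 nM protein and 50 µM zinc acetate. The protein was a Ni–NTA-purified transcription factor fused N-terminally to polyhistidine and DsRed, expressed in E. coli BL21-CodonPlus.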

| Sequence | binding signal |
| --- | --- |
| CGGCTGGTGTAGCTCAGTTCGTACGTGTTCTGCCTTTATACGGAGTCACCTAGTGCAG | 3610 fluorescence intensity (a.u.) |
| TTGTTGTGTGCCCTACACGTGAGCTGGCTGATCAGGCTGCCGGAGTCACCTAGTGCAG | 5570 fluorescence intensity (a.u.) |
| CTCGAGCCCGCGGATGGCGCCCCATGGCGTGGCGGCGGAGCGGAGTCACCTAGTGCAG | 3820 fluorescence intensity (a.u.) |
| CGTTGCTTGCCTTTGGCTTGTGAGTCGAGCTGAGCGAGTTCGGAGTCACCTAGTGCAG | 3660 fluorescence intensity (a.u.) |
| GCTTTTCATTTAATATCTGATAAAACTTACCAAAGAGGAACGGAGTCACCTAGTGCAG | 12800 fluorescence intensity (a.u.) |
| AGATCTATTAGCTAGCCACAGAAAACCATATGATCGTCAGCGGAGTCACCTAGTGCAG | 3380 fluorescence intensity (a.u.) |
| TTCCGGCGCCATCTCGAACGACACGAACTGGTGGCCCCAGCGGAGTCACCTAGTGCAG | 3660 fluorescence intensity (a.u.) |
| GGGGAGGCAAGGCGGGCAATGTGGTGGCAGGCTTGAGTGGCGGAGTCACCTAGTGCAG | 3230 fluorescence intensity (a.u.) |
| CGGGACGGCGCGCTTGCTGACTGCTCCTCCACTACTGGCACGGAGTCACCTAGTGCAG | 3320 fluorescence intensity (a.u.) |
| GAGTATTTGGCATGGTTGTAGCGTTGGTGACCTGAGTCATCGGAGTCACCTAGTGCAG | 7270 fluorescence intensity (a.u.) |
| CCCCTACTATTTTCTAGGCTAGGAAGCGTGCGATCTTTTCCGGAGTCACCTAGTGCAG | 3240 fluorescence intensity (a.u.) |
| GGACGCAGCACACGCAAGCAGTTATTGCCACGTCTATTGGCGGAGTCACCTAGTGCAG | 6980 fluorescence intensity (a.u.) |
| ATGCGTCCTGAATTGTACTCTTCAGCGGAGTCACTTCAGCCGGAGTCACCTAGTGCAG | 3320 fluorescence intensity (a.u.) |
| CCCAACCACTGACGCCGCGCACGCCACGTCAACGTGGGGCCGGAGTCACCTAGTGCAG | 26900 fluorescence intensity (a.u.) |
| ATTCACTGGAGGTGGTGCATCAGCATCACCAAAGCTAGCACGGAGTCACCTAGTGCAG | 3970 fluorescence intensity (a.u.) |
| ACCCTTCTCCTCTCTCCACGACATGCTCTGCTACCGTGAACGGAGTCACCTAGTGCAG | 3530 fluorescence intensity (a.u.) |
| TGACAGGTGGTCCCCGGAGAGCGGGTCGGGGCAGGCGAAGCGGAGTCACCTAGTGCAG | 6120 fluorescence intensity (a.u.) |
| TTTATTGTTGGTACTGCTATTCTTAGGGCGTATGCTAAATCGGAGTCACCTAGTGCAG | 21200 fluorescence intensity (a.u.) |
| TCTTGCACATGATCTGTTCATCCTGTTTGTGTGCATAGTGCGGAGTCACCTAGTGCAG | 5420 fluorescence intensity (a.u.) |
| TGCACCTGCAACAAACTGAAACTAAACGGGAGTCAGCGTTCGGAGTCACCTAGTGCAG | 3760 fluorescence intensity (a.u.) |
| TCTCTCTAGCTTGTCTATGTCACTGATCAGTGAAATCATTCGGAGTCACCTAGTGCAG | 5340 fluorescence intensity (a.u.) |

In a second layout: entries from further up.
Sequence | binding signal
CTCGAGCCCGCGGATGGCGCCCCATGGCGTGGCGGCGGAGCGGAGTCACCTAGTGCAG | 3820 fluorescence intensity (a.u.)
CGTTGCTTGCCTTTGGCTTGTGAGTCGAGCTGAGCGAGTTCGGAGTCACCTAGTGCAG | 3660 fluorescence intensity (a.u.)

Following part:

| Sequence | binding signal |
| --- | --- |
| CGGCGGCGGCGGCGGCGGCGGCGGAGGTGGTGTGGGTGGGCGGAGTCACCTAGTGCAG | 3460 fluorescence intensity (a.u.) |
| CCGCCGCCGCCGCCGCCACGTCGAATGGTTCTTCTCTCCACGGAGTCACCTAGTGCAG | 10900 fluorescence intensity (a.u.) |
| ACACAGATCTGCAACCAAAACAAATGCAACACTAAACACCCGGAGTCACCTAGTGCAG | 26100 fluorescence intensity (a.u.) |
| AATGCAAGGAAGAGGGTACCGTGTATATGTGGCTCTGTGCCGGAGTCACCTAGTGCAG | 4120 fluorescence intensity (a.u.) |
| CGAGGTTCCAGTGCGTGGCCACGTCGTGGCGGCGCCTCATCGGAGTCACCTAGTGCAG | 7510 fluorescence intensity (a.u.) |
| GACACGTACAAAGCCTGTAAACAAACGTGCCACGTCATATCGGAGTCACCTAGTGCAG | 31400 fluorescence intensity (a.u.) |
| TGTCTGTCAGTGTTCACTAAACTGCAAGCGTACAAGTGGACGGAGTCACCTAGTGCAG | 3140 fluorescence intensity (a.u.) |
| CGGCGACGGCGGCGAGGATTGCCGGCTTCAATGGGGATTGCGGAGTCACCTAGTGCAG | 4230 fluorescence intensity (a.u.) |
| TTTTATTCTCTTATTAATTAGAGTAATAATTGTACTCTATCGGAGTCACCTAGTGCAG | 34900 fluorescence intensity (a.u.) |
| GTTGGCTTAACGAGTCAGCTAGCTCAATTCAACTCATCGACGGAGTCACCTAGTGCAG | 3520 fluorescence intensity (a.u.) |
| GCCGCCACGCCGGCGGACGGGACGTCATCATCGTCAACGCCGGAGTCACCTAGTGCAG | 6000 fluorescence intensity (a.u.) |
| CAACTCCATCTTATTACTGATTCATCACTGCGGAATGAACCGGAGTCACCTAGTGCAG | 3760 fluorescence intensity (a.u.) |
| TTGCAAGCCGCCGCCATACCACTGCCAGGTGGTCCCCACCCGGAGTCACCTAGTGCAG | 4590 fluorescence intensity (a.u.) |
| CTATAGAAGATATTTTGGGCACTTAGTCATCGTGTTTAGCCGGAGTCACCTAGTGCAG | 4540 fluorescence intensity (a.u.) |
| CTGCCTCGCCCCGCCGGCCTCCTCCCGACCTACCGCCACCCGGAGTCACCTAGTGCAG | 4110 fluorescence intensity (a.u.) |
| TAACTGGGCCCACGTCACTAGGCCGGATATCAATTGGGCTCGGAGTCACCTAGTGCAG | 13700 fluorescence intensity (a.u.) |
| CACATGTCATAGACACATGTGGACCCACGTGTCATTGAGACGGAGTCACCTAGTGCAG | 7700 fluorescence intensity (a.u.) |
| TATATGGAAAATGTTGCATGGCTATTATCGAGTTGCATGCCGGAGTCACCTAGTGCAG | 19500 fluorescence intensity (a.u.) |
| TCTACTGTGCATTTGCACGAGGATAGTCAGACTCAGAGCACGGAGTCACCTAGTGCAG | 38500 fluorescence intensity (a.u.) |
| GTGACTCGGTGGGAGTATGGTGGTGCCGACGCATCGTGGTCGGAGTCACCTAGTGCAG | 3650 fluorescence intensity (a.u.) |
| GCCCGTGCCAGGGCTGCTACCTCGGCACACTGGCCGGCACCGGAGTCACCTAGTGCAG | 3350 fluorescence intensity (a.u.) |
